PubChem BioAssay AID1487 (National Center for Advancing Translational Sciences (NCATS), 2009)
The list shows a part of the results. These are further read-outs of the screen, such as a control signal, another cell line or another target. No call is given for them. The list favours compounds with an active or inconclusive main result. Words in brackets tell the shape of the fitted curve; partial curves, single points and poor fits give uncertain potencies.

Assay: qHTS Assay for Modulators of Lamin A Splicing
Settings: HeLa LMNA splicing GFP/RFP minigene ratio, 48 h
In short: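 Read-out is the ratio of GFP to DsRed2 object intensity, acquired by 488 nm laser-scanning cytometry on HeLa lamin A-EGFP minigene reporter cells. Compound incubation 48 hrs at 37 °C in Opti-MEM with 2% FBS; DMSO 0.5% final.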

[1] = measured here: GFP splicing reporter channel
[2] = measured here: RFP viability control channel

Row | SMILES | AC50 [1] | AC50 [2]
1 | CCOc1ccc(C(=O)Nc2nnc(SCc3cc(=O)c4cc(C)ccc4[nH]3)s2)cc1 | 1.78 µM [rising, full curve, poor fit] | 
2 | CCOc1cc(S(=O)(=O)Nc2cc(C)cc(C)c2)ccc1Cl |  | 12.6 µM [rising, single point]
3 | C=CCC1(Cl)C(=O)C(Cl)=C(N2CCOCC2)C1(OC)OC (stereo not drawn) | 0.631 µM [falling, partial curve] | 0.316 µM [falling, full curve, poor fit]
4 | CC1(C(=O)NC(=S)NNC(=O)c2ccncc2)CCCCC1 |  | 8.91 µM [rising, partial curve, poor fit]
5 | CCN(CC)S(=O)(=O)c1ccc2c(c1)nc(CN(C)C(=O)c1cccc(Cl)c1)n2C |  | 2 µM [falling, partial curve]
6 | Cc1ccc(N2CC(O)=C(c3ccccc3)C2=N)cc1 |  | 0.00316 µM [rising, full curve, poor fit]
7 | Cc1cc(Sc2nc(N)ncc2[N+](=O)[O-])ncn1 | 5.01 µM [falling, full curve, poor fit] | 7.08 µM [falling, partial curve, poor fit]
8 | CC(C)N1CCN(Cc2ccc3nsnc3c2)CC1CCO (stereo not drawn) | 0.251 µM [falling, full curve, poor fit] | 0.891 µM [falling, full curve]
9 | CCCCCCNS(=O)(=O)c1ccc(OC)c(OC)c1 | 25.1 µM [rising, single point] | 22.4 µM [rising, single point]
10 | COc1cc(/C=N/N=C2/C(=O)Nc3ccccc32)cc(OC)c1O |  | 6.31 µM [rising, full curve]
11 | O=C(Nc1nnc(-c2ccccn2)o1)c1ccc(Br)cc1 |  | 12.6 µM [rising, partial curve, poor fit]
12 | COc1ccc(-n2c(SC(C)C(=O)Nc3ncc(Cl)cc3Cl)nc3ccccc32)cc1 (stereo not drawn) |  | 0.794 µM [rising, partial curve]
13 | O=C1CN2NC(=S)N(c3ccc(Cl)cc3)C2=CN1c1ccc(Cl)cc1 | 2.51 µM [falling, partial curve] | 1.78 µM [falling, full curve]
14 | CC(C)c1ccc(OC(=O)c2cc(-c3ccc4c(c3)OCCO4)on2)cc1 |  | 10 µM [falling, partial curve, poor fit]
15 | C[C@]12CCC3c4ccc(OC(=O)c5ccccc5)cc4CCC3C1CCC2=O (stereo partly drawn) | 11.2 µM [rising, single point] | 
16 | O=C(N/N=C/c1cccc([N+](=O)[O-])c1)C1CC(=O)N(c2ccc(Br)cc2)C1 (stereo not drawn) | 17.8 µM [rising, partial curve, poor fit] | 12.6 µM [rising, partial curve]
17 | Oc1ccc(Cl)c2cccnc12 | 1 µM [falling, full curve, poor fit] | 1.26 µM [falling, full curve]
18 | NC(=S)N/N=C1\CC(n2nnnc2-c2ccccc2Cl)C2COC1O2 (stereo not drawn) |  | 35.5 µM [rising, single point]
19 | Cn1cc(Br)c(C(=O)Nc2nccs2)n1 | 5.01 µM [rising, single point] | 1.58 µM [rising, partial curve]
20 | CCNc1ncc2nc(C)c(=O)n(Cc3cccs3)c2n1 | 6.31 µM [falling, partial curve, poor fit] | 
21 | CC1(C)CC(=O)C2=C(C1)N=C1SCCC(=O)N1C2c1ccccc1 (stereo not drawn) | 5.62 µM [rising, single point] | 
22 | Cc1ccc(OCC(=O)NCC(=O)OCc2cc(=O)n3nc(C)sc3n2)cc1 | 7.08 µM [falling, partial curve, poor fit] | 0.0562 µM [falling, full curve]
23 | Cc1cc(C(=O)CSc2nc3ccc(Cl)cc3[nH]2)c(C)n1C | 17.8 µM [rising, single point] | 
24 | Cc1cc(C)n(S(=O)(=O)/C=C/c2ccccc2)n1 |  | 5.62 µM [rising, single point]
25 | O=C(Nc1nc2nccc(-c3ccccc3)n2n1)c1ccc(F)cc1 |  | 0.355 µM [falling, full curve]
26 | COc1ccc([N+](=O)[O-])cc1NC(=O)CCN1CCN(c2ccccc2OC)CC1 | 22.4 µM [falling, single point] | 20 µM [falling, single point]
27 | Cc1ccc(S(=O)(=O)NC(CCc2ccccc2)CC(=O)C(C)(C)C)cc1 (stereo not drawn) | 35.5 µM [rising, single point] | 35.5 µM [rising, single point]

Some of the entries so far, tab-delimited.
Row	SMILES	AC50 [1]	AC50 [2]
1	CCOc1ccc(C(=O)Nc2nnc(SCc3cc(=O)c4cc(C)ccc4[nH]3)s2)cc1	1.78 µM [rising, full curve, poor fit]	
2	CCOc1cc(S(=O)(=O)Nc2cc(C)cc(C)c2)ccc1Cl		12.6 µM [rising, single point]
3	C=CCC1(Cl)C(=O)C(Cl)=C(N2CCOCC2)C1(OC)OC (stereo not drawn)	0.631 µM [falling, partial curve]	0.316 µM [falling, full curve, poor fit]
4	CC1(C(=O)NC(=S)NNC(=O)c2ccncc2)CCCCC1		8.91 µM [rising, partial curve, poor fit]
5	CCN(CC)S(=O)(=O)c1ccc2c(c1)nc(CN(C)C(=O)c1cccc(Cl)c1)n2C		2 µM [falling, partial curve]
6	Cc1ccc(N2CC(O)=C(c3ccccc3)C2=N)cc1		0.00316 µM [rising, full curve, poor fit]
7	Cc1cc(Sc2nc(N)ncc2[N+](=O)[O-])ncn1	5.01 µM [falling, full curve, poor fit]	7.08 µM [falling, partial curve, poor fit]
